These results are taken from publication PMC8718147.

Chains of the proteins cited; added tags and fusions are not shown.
UniProt P59941: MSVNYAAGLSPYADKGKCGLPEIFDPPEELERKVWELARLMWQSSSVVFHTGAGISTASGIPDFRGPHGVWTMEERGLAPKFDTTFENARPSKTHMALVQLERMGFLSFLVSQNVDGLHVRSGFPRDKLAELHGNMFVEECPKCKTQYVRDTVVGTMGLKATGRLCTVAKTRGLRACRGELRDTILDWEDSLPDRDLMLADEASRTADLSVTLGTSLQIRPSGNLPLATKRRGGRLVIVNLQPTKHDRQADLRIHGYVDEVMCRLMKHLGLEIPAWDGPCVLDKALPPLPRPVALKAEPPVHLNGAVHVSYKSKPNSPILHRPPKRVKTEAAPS
UniProt Q6P5F9: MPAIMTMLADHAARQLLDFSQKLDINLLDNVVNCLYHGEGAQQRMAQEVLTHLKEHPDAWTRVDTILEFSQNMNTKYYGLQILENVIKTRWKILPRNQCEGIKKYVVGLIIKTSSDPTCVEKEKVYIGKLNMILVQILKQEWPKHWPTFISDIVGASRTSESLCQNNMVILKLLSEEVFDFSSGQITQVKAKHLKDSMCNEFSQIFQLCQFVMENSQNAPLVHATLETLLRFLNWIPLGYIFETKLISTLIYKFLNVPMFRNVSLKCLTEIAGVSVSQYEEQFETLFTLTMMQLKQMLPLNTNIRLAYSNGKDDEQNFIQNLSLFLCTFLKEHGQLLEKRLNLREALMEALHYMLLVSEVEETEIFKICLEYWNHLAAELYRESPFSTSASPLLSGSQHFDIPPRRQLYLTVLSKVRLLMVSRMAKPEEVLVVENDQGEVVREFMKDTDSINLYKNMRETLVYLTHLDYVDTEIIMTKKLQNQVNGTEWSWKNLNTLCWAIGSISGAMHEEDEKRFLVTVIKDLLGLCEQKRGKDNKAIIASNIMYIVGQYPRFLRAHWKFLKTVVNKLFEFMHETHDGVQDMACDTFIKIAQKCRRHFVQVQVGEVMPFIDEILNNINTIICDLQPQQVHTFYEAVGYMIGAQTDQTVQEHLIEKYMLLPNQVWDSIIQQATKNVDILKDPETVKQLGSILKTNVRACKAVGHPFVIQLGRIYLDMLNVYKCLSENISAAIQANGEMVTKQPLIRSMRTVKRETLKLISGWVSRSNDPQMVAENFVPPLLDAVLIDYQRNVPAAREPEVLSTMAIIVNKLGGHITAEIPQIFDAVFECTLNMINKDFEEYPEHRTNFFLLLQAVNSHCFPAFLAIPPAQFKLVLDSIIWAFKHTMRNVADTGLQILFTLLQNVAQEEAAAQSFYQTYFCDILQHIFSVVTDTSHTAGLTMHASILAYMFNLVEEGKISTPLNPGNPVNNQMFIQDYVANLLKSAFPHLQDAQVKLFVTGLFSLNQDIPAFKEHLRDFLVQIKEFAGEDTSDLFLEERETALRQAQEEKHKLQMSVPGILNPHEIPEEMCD
UniProt Q08775: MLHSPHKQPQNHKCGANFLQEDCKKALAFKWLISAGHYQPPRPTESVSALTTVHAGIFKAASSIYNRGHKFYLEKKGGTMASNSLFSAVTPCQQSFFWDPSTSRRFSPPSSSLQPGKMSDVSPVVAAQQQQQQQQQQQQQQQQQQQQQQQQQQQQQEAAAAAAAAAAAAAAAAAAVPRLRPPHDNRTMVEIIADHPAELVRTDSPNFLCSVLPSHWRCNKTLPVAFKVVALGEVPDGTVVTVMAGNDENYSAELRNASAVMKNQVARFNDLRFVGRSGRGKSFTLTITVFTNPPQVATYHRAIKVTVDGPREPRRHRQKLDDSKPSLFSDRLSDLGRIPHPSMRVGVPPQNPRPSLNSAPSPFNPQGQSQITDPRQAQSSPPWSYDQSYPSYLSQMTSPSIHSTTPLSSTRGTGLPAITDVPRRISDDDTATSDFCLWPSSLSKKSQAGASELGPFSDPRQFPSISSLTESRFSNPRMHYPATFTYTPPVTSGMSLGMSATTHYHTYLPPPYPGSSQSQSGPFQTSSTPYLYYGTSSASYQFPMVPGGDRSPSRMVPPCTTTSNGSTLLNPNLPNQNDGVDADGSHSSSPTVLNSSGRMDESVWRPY

No constants are given. Whether binding was seen depends on the method and setting. Binding seen in cells or lysates may run through a third protein. Some binding calls cover weakened binding; strength is not graded here.

Assay [1] has as its target Sirtuin 6 (SIRT6) in SIRT6-Tg VSMCs (mouse) (UniProt P59941). Description: co-IP; lysates of SIRT6-Tg VSMCs treated with Pi (3.0 mM) for 7 days; IP with the indicated antibody (anti-SIRT6, anti-Runx2 or anti-XPO1) overnight at 4°C, protein A+G magnetic beads, Western blot; IgG IP as negative control. On the technique in general: A western blot detects proteins with antibodies after separation by electrophoresis.

In assay [2] the target is exportin 1 (XPO1), endogenous in mouse VSMCs (mouse (endogenous in mouse VSMCs)) (UniProt Q6P5F9). Described as above.
Assay [3] addresses Flag-tagged SIRT6 (mouse) (UniProt P59941). Description: co-IP; HEK-293T cells with HA-Runx2 plasmid, flag-SIRT6 plasmid, or both; anti-HA IP and anti-flag IP, Western blot with anti-HA or anti-flag; anti-rabbit IgG IP as negative control.

Turning to “runt-related transcription factor 2 (Runx2), endogenous in mouse VSMCs (from UniProt Q08775 1-607)”, the binding result in assay [1] and in assay [2] was “binds” throughout. “HA-tagged Runx2 (from UniProt Q08775 1-607)”: the binding result in assay [3] is “binds”.
